From article PMC11600263
These are yes or no findings as the source states them, for the method shown. In cells and extracts the contact can be indirect. Some results given as binding are weak or reduced against the parent protein; the word gives no strength.

Protein sequences, listed by entry. Tags and fused reporters are not part of them.
UniProt P35222: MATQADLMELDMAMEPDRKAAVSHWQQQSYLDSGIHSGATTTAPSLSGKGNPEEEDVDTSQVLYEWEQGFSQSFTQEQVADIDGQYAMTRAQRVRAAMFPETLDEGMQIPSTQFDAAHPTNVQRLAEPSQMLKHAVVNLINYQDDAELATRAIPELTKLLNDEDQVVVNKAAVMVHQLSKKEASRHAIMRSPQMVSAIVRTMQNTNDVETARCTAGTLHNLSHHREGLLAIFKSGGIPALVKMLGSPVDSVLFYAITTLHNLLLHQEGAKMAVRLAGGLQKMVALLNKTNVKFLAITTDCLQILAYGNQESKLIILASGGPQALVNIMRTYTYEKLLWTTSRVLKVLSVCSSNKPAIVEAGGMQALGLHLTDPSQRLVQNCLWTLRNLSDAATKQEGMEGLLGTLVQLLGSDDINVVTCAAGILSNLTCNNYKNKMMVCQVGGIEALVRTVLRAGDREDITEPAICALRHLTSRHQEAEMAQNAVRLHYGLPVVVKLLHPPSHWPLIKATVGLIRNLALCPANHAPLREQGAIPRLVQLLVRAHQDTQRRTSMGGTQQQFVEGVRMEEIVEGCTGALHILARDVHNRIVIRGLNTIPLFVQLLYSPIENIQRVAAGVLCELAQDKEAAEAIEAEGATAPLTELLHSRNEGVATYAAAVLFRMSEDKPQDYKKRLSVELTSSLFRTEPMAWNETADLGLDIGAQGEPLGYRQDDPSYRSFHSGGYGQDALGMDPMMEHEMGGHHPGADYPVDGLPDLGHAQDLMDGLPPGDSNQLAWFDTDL

Columns and labels:
[1] = target: T1, delta‐catenin (CTNND1) (human (endogenous in HDFα)) (UniProt O60716); assay: co-IP; endogenous proteins of HDFα cells treated with 7Ap (7Sp as control) in serum free medium for 2 h; 1 mg lysate, 2 μg antibody, 10 μL protein‐G beads; Western blot
T1 sequence: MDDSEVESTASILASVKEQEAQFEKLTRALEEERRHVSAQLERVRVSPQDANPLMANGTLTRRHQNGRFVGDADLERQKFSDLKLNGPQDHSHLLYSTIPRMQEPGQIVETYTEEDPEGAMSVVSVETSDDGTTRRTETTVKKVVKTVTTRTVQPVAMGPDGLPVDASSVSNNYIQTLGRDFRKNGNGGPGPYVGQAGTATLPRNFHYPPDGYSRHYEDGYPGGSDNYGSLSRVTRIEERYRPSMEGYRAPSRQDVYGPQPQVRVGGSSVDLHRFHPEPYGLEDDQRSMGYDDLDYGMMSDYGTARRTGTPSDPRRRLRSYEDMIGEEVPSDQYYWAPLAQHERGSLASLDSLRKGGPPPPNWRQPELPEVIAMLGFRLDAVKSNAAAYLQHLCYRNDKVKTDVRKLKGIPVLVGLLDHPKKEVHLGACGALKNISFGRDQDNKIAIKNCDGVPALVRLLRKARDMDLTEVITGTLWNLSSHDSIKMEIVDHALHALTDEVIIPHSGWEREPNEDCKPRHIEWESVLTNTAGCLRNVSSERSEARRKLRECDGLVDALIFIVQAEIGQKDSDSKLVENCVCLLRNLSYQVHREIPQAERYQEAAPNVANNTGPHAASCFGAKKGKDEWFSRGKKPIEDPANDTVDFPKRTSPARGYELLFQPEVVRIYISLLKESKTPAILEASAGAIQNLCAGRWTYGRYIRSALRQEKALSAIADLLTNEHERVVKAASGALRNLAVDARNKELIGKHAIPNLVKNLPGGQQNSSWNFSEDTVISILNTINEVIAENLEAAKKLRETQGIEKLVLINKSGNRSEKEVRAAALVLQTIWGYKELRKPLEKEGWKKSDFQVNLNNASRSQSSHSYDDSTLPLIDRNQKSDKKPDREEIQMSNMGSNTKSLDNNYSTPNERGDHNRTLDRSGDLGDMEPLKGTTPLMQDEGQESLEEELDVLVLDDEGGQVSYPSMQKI

[2] = target: PDGF receptor beta (PDGFRB) (human (endogenous in HDFα)) (UniProt P09619); assay: as above

Row | binding [1] | binding [2] | Substance
1 | binds | – | beta‐catenin (CTNNB) (from UniProt P35222 1-781)
2 | binds | binds | cyclin‐dependent kinase 6 (CDK6) (from UniProt Q00534 1-326) (enzyme)
